Reference: PubChem BioAssay AID504793 (Drosophila RNAi Screening Center, 2011)
The deposit covers about 23,000 reagents; this is an unselected part of those that have a named target and a result. Of all reagents, 62 (0.27%) were called active. 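Calls come from follow-up tests whose scores are not deposited, so confirmed genes may have low counts here; counts are not normalised per plate.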 The raw values are shown without normalisation. Names joined by + are all predicted targets of the reagent. Reagent sequences are not shown.

- Aim: 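Knock-downs allowing continued mitosis even though DNA is damaged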 (primary screen)
- Cells: Drosophila S2R+ cells
- Knock-down reagent: long dsRNA against Drosophila genes, about 0.25 µg dsRNA per well
- Time to read-out: 4 days of dsRNA, then 4 hours of drug before read-out
- Treatment: doxorubicin 0.5 µM for 4 hours to cause double-strand breaks, in cells also given a low, harmless dose of dsRNA against nbs to sensitise the assay
- Measured: 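Mitotic index as the number of phospho-histone H3-positive cells in each well following doxorubicin, given as raw counts without normalisation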
- Direction: mitotic cells: higher = more cells in mitosis, weaker G2 arrest
- Active means: 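Genes are called active only when high mitotic counts were reproduced with independent dsRNAs and mitosis was checked for delay without damage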
- Calls: active = confirmed in follow-up tests; inactive = not confirmed

no.	predicted target	DRSC id	mitotic cells, replicate 1	activity call
1	CG15336	DRSC18019	9	inactive
2	CG15336	DRSC28008	4	inactive
3	Gr28b	DRSC02291	7	inactive
4	Gr28b	DRSC02292	4	inactive
5	Gr28b	DRSC29459	3	inactive
6	UBL3	DRSC23292	18	inactive
7	Blos2	DRSC10147	3	inactive
8	Blos2	DRSC25642	8	inactive
9	CG5568	DRSC10518	13	inactive
10	CG5568	DRSC22816	10	inactive
11	CG5568	DRSC24887	9	inactive
12	hpRNA:CR32205 + CG33255 (retired record)	DRSC28015	11	inactive
13	sunz	DRSC12559	4	inactive
14	CG15358	DRSC00388	9	inactive
15	STUB1	DRSC03282	7	inactive
16	RpS19b	DRSC15773	11	inactive
17	Osi10b	DRSC12279	7	inactive
18	CG17122	DRSC10245	4	inactive
19	CG17122	DRSC28648	4	inactive
20	CG16956	DRSC02544	2	inactive
21	CG31178	DRSC14590	7	inactive
22	CG10822	DRSC06005	1	inactive
23	CG32448	DRSC22657	5	inactive
24	CG12112	DRSC17809	5	inactive
25	CG2931	DRSC12324	3	inactive
26	CG18549	DRSC15347	8	inactive
27	CG18549	DRSC28847	5	inactive
28	CG17109	DRSC15172	16	inactive
29	CG17109	DRSC26637	6	inactive
30	fig	DRSC16270	8	inactive
31	fig	DRSC24735	9	inactive
32	CG30265	DRSC21592	10	inactive
33	Or65b	DRSC08809	5	inactive
34	Vha36-1	DRSC07098	4	inactive
35	Vha36-1	DRSC25624	6	inactive
36	CG12204	DRSC19442	4	inactive
37	CG12204	DRSC26143		inactive
38	CG10864	DRSC14273	9	inactive
39	Rh4 + sina	DRSC11396	3	inactive
40	Npc1b	DRSC20488	4	inactive
41	Polr2B	DRSC16831	11	inactive
42	CG14857	DRSC14981	7	inactive
43	xmas-1 (retired record)	DRSC20386	7	inactive
44	xmas-1 (retired record)	DRSC24501	9	inactive
45	Lsm11	DRSC06238	6	inactive
46	Nazo	DRSC14343	5	inactive
47	CG18417	DRSC10319	10	inactive
48	CG18417	DRSC23997	10	inactive
49	CG8539	DRSC10988	2	inactive
50	CG8539	DRSC21798	4	inactive
51	CG8539	DRSC28192	7	inactive
52	CG11368	DRSC17778	8	inactive
53	ND-B16.6	DRSC18306	12	inactive
54	ND-B16.6	DRSC22600	13	inactive
55	ND-B16.6	DRSC26200	6	inactive
56	CG6083	DRSC10580	6	inactive
57	CG6083	DRSC24586	11	inactive
58	CG4955	DRSC19927	7	inactive
59	mthl2	DRSC10287	7	inactive
60	mthl2	DRSC27003	10	inactive
61	CG17154	DRSC10253	3	inactive
62	CG11983	DRSC14458	5	inactive
63	CG11670	DRSC14342	1	inactive
64	Daxx	DRSC03255	4	inactive
65	Daxx	DRSC29680	5	inactive
66	bb8	DRSC15578	10	inactive
67	CG17472	DRSC02622	4	inactive
68	mus302	DRSC09905	2	inactive
69	CG33191	DRSC27362	6	inactive
70	neur	DRSC17013	10	inactive
71	neur	DRSC38427	4	inactive
72	CG32437	DRSC11760	3	inactive
73	CG32437	DRSC22020	16	inactive
74	CG32437	DRSC27187	9	inactive
75	CG6204	DRSC15991	6	inactive
